According to paper PMC11706607:
No constants are given. Whether binding was seen depends on the method and setting. Binding seen in cells or lysates may run through a third protein. Some binding calls cover weakened binding; strength is not graded here.

Protein sequences, listed by entry. Tags and fused reporters are not part of them.
UniProt Q9H1Y0: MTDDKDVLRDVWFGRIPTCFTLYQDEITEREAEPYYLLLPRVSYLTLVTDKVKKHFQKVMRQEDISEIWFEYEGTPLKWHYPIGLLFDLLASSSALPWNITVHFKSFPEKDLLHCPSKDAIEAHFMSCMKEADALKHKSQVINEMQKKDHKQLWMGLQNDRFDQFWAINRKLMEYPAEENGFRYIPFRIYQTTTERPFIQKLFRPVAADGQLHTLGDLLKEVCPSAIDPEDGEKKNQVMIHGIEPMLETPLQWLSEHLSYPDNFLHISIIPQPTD
UniProt Q92609: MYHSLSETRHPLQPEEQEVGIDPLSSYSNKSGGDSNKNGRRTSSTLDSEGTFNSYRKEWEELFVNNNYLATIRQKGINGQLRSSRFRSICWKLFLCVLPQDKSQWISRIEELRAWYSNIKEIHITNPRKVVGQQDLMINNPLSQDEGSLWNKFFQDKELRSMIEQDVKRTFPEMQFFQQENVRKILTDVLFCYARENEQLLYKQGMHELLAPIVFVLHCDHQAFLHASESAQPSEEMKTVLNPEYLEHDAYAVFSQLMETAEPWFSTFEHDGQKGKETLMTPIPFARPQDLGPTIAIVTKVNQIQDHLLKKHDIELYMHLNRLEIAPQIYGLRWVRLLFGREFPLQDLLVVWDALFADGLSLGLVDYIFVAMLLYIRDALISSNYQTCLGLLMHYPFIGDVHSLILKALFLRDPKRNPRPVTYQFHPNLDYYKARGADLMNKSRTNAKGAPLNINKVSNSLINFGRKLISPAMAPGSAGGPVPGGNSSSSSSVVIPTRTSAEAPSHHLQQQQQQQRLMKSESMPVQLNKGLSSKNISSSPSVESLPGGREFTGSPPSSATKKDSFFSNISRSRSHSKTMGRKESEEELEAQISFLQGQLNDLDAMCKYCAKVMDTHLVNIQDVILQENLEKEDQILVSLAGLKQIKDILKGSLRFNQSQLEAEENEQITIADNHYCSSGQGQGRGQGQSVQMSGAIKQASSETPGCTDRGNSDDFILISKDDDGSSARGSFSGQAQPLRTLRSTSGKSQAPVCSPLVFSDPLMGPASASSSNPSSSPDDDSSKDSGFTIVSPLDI

Tests used:
[1] = target: endogenous ATG5 (human (endogenous in HeLa)) (UniProt Q9H1Y0); assay: co-IP; endogenous ATG5 and endogenous retromer subunits, HeLa cells with or without 2 mM LLOMe for 30 min; NP-40 buffer, Dynabeads, immunoblot
GFP-LC3 = GFP-LC3 (UniProt Q9H492); assay: co-IP; co-IP with GFP-LC3 in Huh7 cells treated with or without Monensin (100 µM), LLOMe (100 µM) and Bafilomycin A1 (100 nM) for 45 min

binding [1] | binding (GFP-LC3) | Substance
binds |  | VPS26A (from UniProt O75436 1-327)
 | binds | TBC1D5 (from UniProt Q92609 1-795)
